Paper PMC8421687
These are yes or no findings as the source states them, for the method shown. Binding seen in cells or lysates may run through a third protein. Some binding calls cover weakened binding; strength is not graded here.

Amino acid sequences for entries named in this document (tags omitted).
UniProt P27361: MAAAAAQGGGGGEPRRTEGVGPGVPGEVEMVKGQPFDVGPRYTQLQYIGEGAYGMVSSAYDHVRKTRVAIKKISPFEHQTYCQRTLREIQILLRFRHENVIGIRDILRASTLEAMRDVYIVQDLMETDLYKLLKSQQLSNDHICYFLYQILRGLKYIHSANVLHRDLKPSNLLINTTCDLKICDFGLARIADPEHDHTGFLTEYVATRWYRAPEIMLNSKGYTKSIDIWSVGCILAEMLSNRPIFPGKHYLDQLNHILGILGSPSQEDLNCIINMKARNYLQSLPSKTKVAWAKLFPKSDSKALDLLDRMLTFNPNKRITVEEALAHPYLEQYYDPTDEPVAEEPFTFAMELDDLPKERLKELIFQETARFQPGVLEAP
UniProt P28482: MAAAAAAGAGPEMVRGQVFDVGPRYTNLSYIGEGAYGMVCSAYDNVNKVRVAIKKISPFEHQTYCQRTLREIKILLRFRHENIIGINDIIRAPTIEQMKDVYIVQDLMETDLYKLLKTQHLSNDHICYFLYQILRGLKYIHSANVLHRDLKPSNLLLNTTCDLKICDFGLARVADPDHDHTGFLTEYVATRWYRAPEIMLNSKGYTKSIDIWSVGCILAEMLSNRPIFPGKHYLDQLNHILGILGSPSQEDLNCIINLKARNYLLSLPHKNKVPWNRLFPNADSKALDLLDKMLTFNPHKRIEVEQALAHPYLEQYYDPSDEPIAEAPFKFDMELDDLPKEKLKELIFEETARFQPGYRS

Biological target: T1, Ran binding protein 3 (RanBP3) (human (endogenous in K562)) (UniProt Q9H6Z4)
T1 sequence: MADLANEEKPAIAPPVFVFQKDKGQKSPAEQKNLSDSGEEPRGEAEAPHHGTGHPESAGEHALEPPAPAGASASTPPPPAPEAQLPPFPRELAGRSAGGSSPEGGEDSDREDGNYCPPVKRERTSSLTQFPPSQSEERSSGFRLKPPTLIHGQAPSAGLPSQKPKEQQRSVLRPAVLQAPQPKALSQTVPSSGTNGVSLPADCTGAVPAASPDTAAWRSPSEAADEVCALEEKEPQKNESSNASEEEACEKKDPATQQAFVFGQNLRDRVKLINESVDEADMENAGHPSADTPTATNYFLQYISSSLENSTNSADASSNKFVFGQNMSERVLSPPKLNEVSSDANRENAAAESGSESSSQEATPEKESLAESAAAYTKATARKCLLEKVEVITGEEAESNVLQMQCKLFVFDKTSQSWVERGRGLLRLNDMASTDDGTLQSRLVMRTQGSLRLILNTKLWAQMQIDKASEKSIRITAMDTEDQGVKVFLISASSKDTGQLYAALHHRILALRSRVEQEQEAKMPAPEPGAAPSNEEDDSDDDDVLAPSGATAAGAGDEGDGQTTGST
Assay: co-IP; anti-RanBP3 antibody (or isotype-matched control IgG) on protein A/G magnetic beads, incubated 2 h at 4°C with total protein of K562-shNT and K562-shRanBP3 cells in IP lysis buffer with PMSF; washed 4 times; western blot with anti-ERK1/2, anti-CRM1 and anti-SMAD2/3

binding | Substance
binds | extracellular signal-regulated kinase 1 (ERK1) (from UniProt P27361 1-379)
binds | extracellular signal-regulated kinase 2 (ERK2) (from UniProt P28482 1-360)
